Earlier results in patent US20150157714A1, “IMPLEMENTATION OF NON-PATHOGENIC BIOLUMINESCENT BACTERIA AS A SUB-MICRON LIGHT EMITTING SOURCE FOR PHOTO-DYNAMIC THERAPY IN THE LUNGS” (priority 2013, published 2015).
“And” between values parts separate entries of the source, which are not always exact repeats. Equal entries are not always repeated. For at least one compound, name, drawing or mass did not settle the structure.

Details: absorption spectra wavelengths for photochemical interactions

SMILES	Spectral Absorption Ranges and Peaks
Oc1cccc(-c2c3nc(c(-c4cccc(O)c4)c4ccc([nH]4)c(-c4cccc(O)c4)c4nc(c(-c5cccc(O)c5)c5ccc2[nH]5)CC4)C=C3)c1 [Temoporfin (Foscan) (mTHPC), Temoporfin]	652 nm
Cc1cc(O)c2c(=O)c3c(O)cc(O)c4c5c(O)cc(O)c6c(=O)c7c(O)cc(C)c8c1c2c(c34)c(c78)c65 [hypericin]	550 nm and 595 nm
C=CC1=C(C)c2cc3[nH]c(cc4nc(cc5[nH]c(cc1n2)c(C)c5CCC(=O)O)C(CCC(=O)O)=C4C)c(C)c3C=C [Protoporphyrin IX]	506 nm and 546 nm and 578 nm and 563 nm
